Data source: PubChem BioAssay AID1671195 (Yale University, 2021)
This is an unselected part of about 22,000 reagents. About 1,510 of all reagents (6.9%) count as active. 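Active includes knockdowns raising or lowering LDL uptake; positive z-scores mean more uptake, negative mean less.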 No sequences are given here.

- Assay: 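Genes whose knockdown alters LDL uptake in liver cancer cells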 (primary screen)
- Cell system: human Huh7 hepatoma cells
- Knock-down reagent: siRNA pool against human genes, 18 nM
- Duration: about 2 to 2.5 days of knockdown, then 8 h LDL uptake
- Challenge: DiI-labelled LDL at 30 µg/ml for 8 h, in lipoprotein-deficient serum medium
- Read-out: 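Per-cell DiI-LDL intensity by automated imaging; well means scaled to the plate median and given as a robust z-score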
- Scale: robust z-score: higher = more LDL uptake after knockdown
- Call rule: 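a gene counts as active if at least two replicate z-scores exceed ±2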

| gene | robust z-score, replicate 1 | robust z-score, replicate 2 | robust z-score, replicate 3 | outcome |
| --- | --- | --- | --- | --- |
| GAPVD1 (GTPase activating protein and VPS9 domains 1) | 0.394 | 0.103 | 1.62 | inactive |
| KIF26A (kinesin family member 26A) | -1.25 | 1.62 | -0.4 | inactive |
| PTPRK (protein tyrosine phosphatase receptor type K) | -0.761 | -0.781 | -0.654 | inactive |
| LRP5L (LDL receptor related protein 5 like (pseudogene)) | 0.207 | 0.796 | 0.995 | inactive |
| ABITRAM (actin binding transcription modulator) | -0.0175 | 0.00836 | -0.205 | inactive |
| EDNRB (endothelin receptor type B) | -0.724 | 0.0652 | -0.509 | inactive |
| SOCS6 (suppressor of cytokine signaling 6) | -1.59 | -1.27 | -1.65 | inactive |
| TMEM89 (transmembrane protein 89) | -0.789 | -0.752 | -0.331 | inactive |
| TLR7 (toll like receptor 7) | -0.679 | -0.943 | -0.894 | inactive |
| LOC387912 (retired record) | -0.233 | -0.184 | -0.518 | inactive |
| USP29 (ubiquitin specific peptidase 29) | -0.834 | -0.526 | -0.535 | inactive |
| ADAM8 (ADAM metallopeptidase domain 8) | -0.226 | -0.95 | -0.132 | inactive |
| STXBP2 (syntaxin binding protein 2) | -1.22 | 0.0762 | 1.42 | inactive |
| FAM187B (family with sequence similarity 187 member B) | -0.374 | 0.0585 | -0.457 | inactive |
| TOR1B (torsin family 1 member B) | 0.921 | 1.37 | -0.626 | inactive |
| TAS2R5 (taste 2 receptor member 5) | 0.0598 | -0.0867 | 1.18 | inactive |
| OR8J3 (olfactory receptor family 8 subfamily J member 3) | -1.27 | -0.293 | -0.816 | inactive |
| FKBP2 (FKBP prolyl isomerase 2) | -0.439 | -0.246 | -0.388 | inactive |
| PIGL (phosphatidylinositol glycan anchor biosynthesis class L) | 0.204 | 0.921 | 0.0874 | inactive |
| RBM11 (RNA binding motif protein 11) | 0.0299 | -0.0898 | 0.352 | inactive |
| GLG1 (golgi glycoprotein 1) | -1.23 | -1.9 | -0.912 | inactive |
| TBCE (tubulin folding cofactor E) | 2.06 | 1.93 | 2.42 | active |
| TEKT5 (tektin 5) | 0.771 | 0.943 | 2.2 | inactive |
| PI4K2A (phosphatidylinositol 4-kinase type 2 alpha) | -0.626 | -0.227 | -0.677 | inactive |
| MCM3AP | 0.0973 | 0.301 | 0.661 | inactive |
| CNNM4 | -0.512 | -0.174 | 0.555 | inactive |
| TLX2 (T cell leukemia homeobox 2) | -1.5 | -0.55 | -0.965 | inactive |
| CRIP3 (cysteine rich protein 3) | -1.65 | -1.49 | -1.88 | inactive |
| RPL36P5 (ribosomal protein L36 pseudogene 5) | 0.738 | 0.851 | 1.29 | inactive |
| RPL22P11 (ribosomal protein L22 pseudogene 11) | 1.14 | 1.96 | 1.81 | inactive |
| BPIFB1 (BPI fold containing family B member 1) | -0.464 | 0.14 | 0.00165 | inactive |
| LOC100288208 | 2.28 | 1.62 | 1.13 | inactive |
| METRN (meteorin, glial cell differentiation regulator) | -1.33 | -1.6 | -1.1 | inactive |
| ZBTB21 (zinc finger and BTB domain containing 21) | -0.167 | -0.0212 | -0.237 | inactive |
| ATRN (attractin) | -1.11 | 0.221 | -0.653 | inactive |
| SFRP5 (secreted frizzled related protein 5) | 0.366 | 0.376 | -1.39 | inactive |
| SLC29A2 | 0.306 | 0.306 | 0.508 | inactive |
| INTS2 (integrator complex subunit 2) | 1.29 | 1.04 | -0.0755 | inactive |
| ARL14 (ARF like GTPase 14) | 1.37 | 1.84 | 0.666 | inactive |
| NFIB (nuclear factor I B) | -1.22 | -1.1 | -0.0463 | inactive |
| MMAA (metabolism of cobalamin associated A) | -0.00229 | 0.193 | 0.635 | inactive |
| HOXC4 (homeobox C4) | 0.312 | -0.744 | -0.379 | inactive |
| ATG101 (autophagy related 101) | 1.01 | 1.04 | 1.69 | inactive |
| SPP1 (secreted phosphoprotein 1) | 3.56 | 2.13 | 2.06 | active |
| SLC51B (SLC51 subunit beta) | -1.4 | -0.638 | -0.515 | inactive |
| TMEM131L (transmembrane 131 like) | -1.47 | -1.01 | -1.71 | inactive |
| GPD1L (glycerol-3-phosphate dehydrogenase 1 like) | 0.232 | 0.213 | 0.215 | inactive |
| OR5K3 (olfactory receptor family 5 subfamily K member 3) | 0.726 | -1.4 | 0.771 | inactive |
| UGT1A6 (UDP glucuronosyltransferase family 1 member A6) | 0.647 | 1.19 | 1.24 | inactive |
| ETAA1 (ETAA1 activator of ATR kinase) | -0.864 | 0.36 | 1.48 | inactive |
| NAA16 (N-alpha-acetyltransferase 16, NatA auxiliary subunit) | -1.49 | -1.42 | -0.832 | inactive |
| SLC27A6 | -0.108 | 0.299 | -0.75 | inactive |
| ARL16 (ARF like GTPase 16) | 0.0833 | 0.162 | 0.000146 | inactive |
| TIGD3 (tigger transposable element derived 3) | -0.714 | -0.961 | -0.739 | inactive |
| RSBN1 (round spermatid basic protein 1) | 0.223 | 1.53 | -0.391 | inactive |
| CDH18 (cadherin 18) | -0.679 | -0.334 | -0.542 | inactive |
| OR51F2 (olfactory receptor family 51 subfamily F member 2) | -0.464 | -0.748 | -0.791 | inactive |
| LOC388477 (retired record) | 1.89 | 1.11 | 1.61 | inactive |
| ZBTB48 (zinc finger and BTB domain containing 48) | 0.329 | 0.15 | 0.31 | inactive |
| ANKRD24 (ankyrin repeat domain 24) | -1.04 | -0.919 | -1.08 | inactive |
| BYSL (bystin like) | -0.99 | -0.583 | -1.16 | inactive |
| UTP11 (UTP11 small subunit processome component) | -0.857 | -0.143 | 0.197 | inactive |
| LINC00698 (long independently transcribed non-coding RNA 698) | -0.913 | -0.869 | -0.695 | inactive |
| SPIN4 (spindlin family member 4) | -0.0661 | -0.644 | -0.381 | inactive |
| ADGRG7 (adhesion G protein-coupled receptor G7) | 2.73 | 1.64 | 2.97 | active |
| LITAF (lipopolysaccharide induced TNF factor) | -0.0783 | -0.747 | -0.932 | inactive |
| CBX1 (chromobox 1) | 0.554 | 1.26 | 0.347 | inactive |
| ANKHD1-EIF4EBP3 (ANKHD1-EIF4EBP3 readthrough) | -0.83 | 0.885 | 0.909 | inactive |
